Test results as given in the supplement of paper PMC10849652.
The other results are listed elsewhere or left out.

The chains behind the UniProt entries cited, without tags or fusion partners. Where a name states a change or a piece, a line headed by the entry shows the natural chain unless it says otherwise.
UniProt Q8TB40: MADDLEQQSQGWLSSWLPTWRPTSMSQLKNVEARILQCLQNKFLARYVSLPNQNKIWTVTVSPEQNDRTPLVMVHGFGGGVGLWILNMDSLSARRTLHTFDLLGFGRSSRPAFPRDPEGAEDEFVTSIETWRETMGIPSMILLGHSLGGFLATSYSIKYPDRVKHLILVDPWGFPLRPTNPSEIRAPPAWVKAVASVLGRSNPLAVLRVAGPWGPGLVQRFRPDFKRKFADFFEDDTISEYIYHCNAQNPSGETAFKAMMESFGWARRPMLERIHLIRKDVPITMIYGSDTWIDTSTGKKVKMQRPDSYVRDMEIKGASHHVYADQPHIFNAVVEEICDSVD
UniProt Q9BV23: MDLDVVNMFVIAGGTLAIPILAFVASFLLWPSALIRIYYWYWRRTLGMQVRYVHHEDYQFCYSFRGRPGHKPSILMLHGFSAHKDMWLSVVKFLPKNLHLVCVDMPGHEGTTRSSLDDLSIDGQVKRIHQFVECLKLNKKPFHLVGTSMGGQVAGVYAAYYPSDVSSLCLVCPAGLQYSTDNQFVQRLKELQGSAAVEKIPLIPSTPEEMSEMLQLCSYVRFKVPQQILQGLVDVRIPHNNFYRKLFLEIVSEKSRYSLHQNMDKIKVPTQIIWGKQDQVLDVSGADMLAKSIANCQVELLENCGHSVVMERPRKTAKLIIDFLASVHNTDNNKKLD
UniProt P78325: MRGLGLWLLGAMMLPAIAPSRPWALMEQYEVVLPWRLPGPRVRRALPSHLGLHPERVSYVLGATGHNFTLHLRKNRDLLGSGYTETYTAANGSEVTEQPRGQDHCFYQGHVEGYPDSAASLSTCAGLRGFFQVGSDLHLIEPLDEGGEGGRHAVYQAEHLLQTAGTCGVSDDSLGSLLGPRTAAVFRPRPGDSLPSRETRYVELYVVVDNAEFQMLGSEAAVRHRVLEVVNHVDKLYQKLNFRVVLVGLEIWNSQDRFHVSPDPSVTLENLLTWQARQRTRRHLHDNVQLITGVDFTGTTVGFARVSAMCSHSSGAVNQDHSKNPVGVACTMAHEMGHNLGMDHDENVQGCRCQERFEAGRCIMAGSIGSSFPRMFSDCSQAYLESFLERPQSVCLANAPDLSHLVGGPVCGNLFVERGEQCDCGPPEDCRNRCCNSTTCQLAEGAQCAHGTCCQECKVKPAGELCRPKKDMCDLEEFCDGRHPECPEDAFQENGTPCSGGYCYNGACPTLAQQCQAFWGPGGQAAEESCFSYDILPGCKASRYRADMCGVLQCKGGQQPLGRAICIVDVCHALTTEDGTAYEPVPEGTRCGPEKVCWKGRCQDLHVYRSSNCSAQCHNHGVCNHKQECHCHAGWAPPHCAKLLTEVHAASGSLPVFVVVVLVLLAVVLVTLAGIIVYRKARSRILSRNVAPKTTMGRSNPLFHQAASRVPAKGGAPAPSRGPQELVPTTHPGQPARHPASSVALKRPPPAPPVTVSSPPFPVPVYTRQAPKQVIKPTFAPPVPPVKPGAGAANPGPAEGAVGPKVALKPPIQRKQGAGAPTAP
UniProt O95342, whole entry, looked up: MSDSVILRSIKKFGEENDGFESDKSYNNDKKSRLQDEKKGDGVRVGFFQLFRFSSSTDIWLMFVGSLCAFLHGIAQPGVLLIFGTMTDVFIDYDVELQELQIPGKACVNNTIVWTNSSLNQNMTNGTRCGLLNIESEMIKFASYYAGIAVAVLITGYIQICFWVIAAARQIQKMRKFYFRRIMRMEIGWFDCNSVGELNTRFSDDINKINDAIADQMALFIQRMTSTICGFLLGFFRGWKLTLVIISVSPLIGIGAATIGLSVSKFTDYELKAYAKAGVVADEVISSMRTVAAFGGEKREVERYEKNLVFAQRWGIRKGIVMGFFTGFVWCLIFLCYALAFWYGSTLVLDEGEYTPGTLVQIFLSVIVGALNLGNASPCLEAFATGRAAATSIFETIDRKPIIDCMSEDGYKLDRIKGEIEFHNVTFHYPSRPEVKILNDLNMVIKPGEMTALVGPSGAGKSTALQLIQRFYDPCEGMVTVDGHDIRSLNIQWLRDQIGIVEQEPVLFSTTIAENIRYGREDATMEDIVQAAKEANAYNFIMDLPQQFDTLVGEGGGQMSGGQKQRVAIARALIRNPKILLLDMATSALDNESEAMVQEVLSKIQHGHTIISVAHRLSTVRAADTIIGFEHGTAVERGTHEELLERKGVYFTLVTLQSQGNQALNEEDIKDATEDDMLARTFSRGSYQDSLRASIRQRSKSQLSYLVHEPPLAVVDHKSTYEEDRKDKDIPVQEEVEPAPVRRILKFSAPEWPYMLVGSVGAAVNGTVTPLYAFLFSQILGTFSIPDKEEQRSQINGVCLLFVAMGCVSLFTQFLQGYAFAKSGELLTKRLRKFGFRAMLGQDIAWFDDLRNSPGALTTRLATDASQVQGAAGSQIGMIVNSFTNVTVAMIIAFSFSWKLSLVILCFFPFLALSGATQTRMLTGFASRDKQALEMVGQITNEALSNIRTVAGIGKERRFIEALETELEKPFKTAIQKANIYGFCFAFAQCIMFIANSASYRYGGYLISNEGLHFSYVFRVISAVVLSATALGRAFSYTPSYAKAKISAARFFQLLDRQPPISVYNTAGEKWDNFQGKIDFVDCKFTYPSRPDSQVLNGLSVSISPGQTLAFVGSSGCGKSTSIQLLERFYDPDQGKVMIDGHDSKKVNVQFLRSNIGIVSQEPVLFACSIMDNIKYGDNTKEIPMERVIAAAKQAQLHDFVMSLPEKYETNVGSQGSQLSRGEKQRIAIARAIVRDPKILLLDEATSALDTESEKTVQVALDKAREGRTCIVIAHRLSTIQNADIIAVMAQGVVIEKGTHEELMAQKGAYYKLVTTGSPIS
UniProt P53396: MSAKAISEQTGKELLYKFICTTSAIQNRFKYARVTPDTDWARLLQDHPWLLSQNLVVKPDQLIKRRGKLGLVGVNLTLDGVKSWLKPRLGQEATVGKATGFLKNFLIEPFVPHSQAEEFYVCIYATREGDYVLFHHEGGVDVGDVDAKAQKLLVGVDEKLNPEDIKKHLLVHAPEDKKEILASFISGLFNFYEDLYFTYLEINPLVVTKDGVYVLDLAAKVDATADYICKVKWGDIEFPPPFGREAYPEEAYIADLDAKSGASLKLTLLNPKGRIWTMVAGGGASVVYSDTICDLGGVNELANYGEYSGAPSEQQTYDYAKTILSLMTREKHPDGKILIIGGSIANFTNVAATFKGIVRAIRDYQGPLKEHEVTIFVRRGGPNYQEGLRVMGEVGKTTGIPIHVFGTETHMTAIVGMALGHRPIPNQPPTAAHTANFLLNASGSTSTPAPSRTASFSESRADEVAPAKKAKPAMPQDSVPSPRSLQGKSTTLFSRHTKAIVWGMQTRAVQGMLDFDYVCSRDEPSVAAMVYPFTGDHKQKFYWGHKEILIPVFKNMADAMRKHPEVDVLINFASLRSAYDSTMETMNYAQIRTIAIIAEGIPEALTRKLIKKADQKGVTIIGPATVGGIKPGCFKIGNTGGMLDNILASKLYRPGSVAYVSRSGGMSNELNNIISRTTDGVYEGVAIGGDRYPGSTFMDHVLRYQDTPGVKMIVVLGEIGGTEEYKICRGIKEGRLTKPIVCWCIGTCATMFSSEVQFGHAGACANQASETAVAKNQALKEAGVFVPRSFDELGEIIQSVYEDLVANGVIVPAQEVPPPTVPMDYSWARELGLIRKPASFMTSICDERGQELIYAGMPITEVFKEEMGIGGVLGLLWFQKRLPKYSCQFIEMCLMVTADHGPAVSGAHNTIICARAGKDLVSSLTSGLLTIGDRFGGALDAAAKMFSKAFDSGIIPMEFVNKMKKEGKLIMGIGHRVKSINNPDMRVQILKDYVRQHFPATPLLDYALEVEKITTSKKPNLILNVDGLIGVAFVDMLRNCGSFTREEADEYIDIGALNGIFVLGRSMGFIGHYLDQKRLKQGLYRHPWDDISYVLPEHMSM
UniProt Q15067: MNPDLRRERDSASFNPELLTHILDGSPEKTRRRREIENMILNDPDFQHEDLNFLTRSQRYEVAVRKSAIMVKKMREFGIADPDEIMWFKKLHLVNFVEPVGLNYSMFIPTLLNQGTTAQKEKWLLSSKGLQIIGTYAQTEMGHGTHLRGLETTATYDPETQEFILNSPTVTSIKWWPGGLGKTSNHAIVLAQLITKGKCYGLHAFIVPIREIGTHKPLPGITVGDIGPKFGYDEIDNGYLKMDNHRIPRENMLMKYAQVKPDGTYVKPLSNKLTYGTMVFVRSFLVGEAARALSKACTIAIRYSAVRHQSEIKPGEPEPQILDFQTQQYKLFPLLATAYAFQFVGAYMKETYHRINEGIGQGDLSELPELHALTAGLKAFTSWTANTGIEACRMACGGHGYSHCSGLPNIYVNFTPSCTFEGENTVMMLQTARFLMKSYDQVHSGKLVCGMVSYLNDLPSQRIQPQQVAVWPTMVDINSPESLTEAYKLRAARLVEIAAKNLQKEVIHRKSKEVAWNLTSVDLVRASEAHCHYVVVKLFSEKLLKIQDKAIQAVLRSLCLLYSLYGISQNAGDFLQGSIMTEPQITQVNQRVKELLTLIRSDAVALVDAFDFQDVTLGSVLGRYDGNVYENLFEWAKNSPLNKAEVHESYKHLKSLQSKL
UniProt Q9P1F3: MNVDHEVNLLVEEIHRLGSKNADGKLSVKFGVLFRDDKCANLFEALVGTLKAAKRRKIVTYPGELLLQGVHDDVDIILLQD
UniProt P08183, whole entry, looked up: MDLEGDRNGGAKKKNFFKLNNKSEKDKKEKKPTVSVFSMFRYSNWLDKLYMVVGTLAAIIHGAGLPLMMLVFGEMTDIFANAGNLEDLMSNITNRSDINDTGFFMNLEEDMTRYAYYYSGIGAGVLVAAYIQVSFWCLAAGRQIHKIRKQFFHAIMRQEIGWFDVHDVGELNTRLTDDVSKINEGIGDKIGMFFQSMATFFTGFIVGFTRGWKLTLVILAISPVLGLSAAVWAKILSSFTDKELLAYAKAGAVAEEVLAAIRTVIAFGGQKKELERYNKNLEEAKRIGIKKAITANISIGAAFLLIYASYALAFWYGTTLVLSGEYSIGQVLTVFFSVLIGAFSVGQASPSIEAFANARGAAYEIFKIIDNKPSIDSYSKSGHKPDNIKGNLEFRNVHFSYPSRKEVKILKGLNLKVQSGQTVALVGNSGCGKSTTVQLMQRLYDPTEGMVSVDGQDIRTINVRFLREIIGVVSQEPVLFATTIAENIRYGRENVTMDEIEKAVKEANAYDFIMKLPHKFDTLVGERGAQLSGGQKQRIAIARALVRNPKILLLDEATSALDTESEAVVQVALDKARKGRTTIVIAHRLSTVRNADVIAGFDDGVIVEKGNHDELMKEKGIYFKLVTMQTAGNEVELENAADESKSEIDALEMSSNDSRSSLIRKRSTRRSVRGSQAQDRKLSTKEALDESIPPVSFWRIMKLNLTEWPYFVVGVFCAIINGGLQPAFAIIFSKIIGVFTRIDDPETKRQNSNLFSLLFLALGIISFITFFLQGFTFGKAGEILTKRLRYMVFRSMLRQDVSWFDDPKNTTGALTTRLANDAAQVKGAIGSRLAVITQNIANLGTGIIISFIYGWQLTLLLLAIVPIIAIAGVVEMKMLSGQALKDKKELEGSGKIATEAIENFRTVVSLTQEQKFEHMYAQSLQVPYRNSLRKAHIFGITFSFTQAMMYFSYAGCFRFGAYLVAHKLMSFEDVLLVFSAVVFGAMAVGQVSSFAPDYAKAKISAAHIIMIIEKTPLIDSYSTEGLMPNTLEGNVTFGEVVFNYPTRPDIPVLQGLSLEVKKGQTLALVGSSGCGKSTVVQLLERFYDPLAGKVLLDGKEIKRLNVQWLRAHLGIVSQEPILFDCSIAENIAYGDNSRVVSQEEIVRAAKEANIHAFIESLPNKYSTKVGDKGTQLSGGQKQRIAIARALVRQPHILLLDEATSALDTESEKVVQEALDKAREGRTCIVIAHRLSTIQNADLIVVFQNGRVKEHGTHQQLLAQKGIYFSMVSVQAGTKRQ
UniProt Q5VST6: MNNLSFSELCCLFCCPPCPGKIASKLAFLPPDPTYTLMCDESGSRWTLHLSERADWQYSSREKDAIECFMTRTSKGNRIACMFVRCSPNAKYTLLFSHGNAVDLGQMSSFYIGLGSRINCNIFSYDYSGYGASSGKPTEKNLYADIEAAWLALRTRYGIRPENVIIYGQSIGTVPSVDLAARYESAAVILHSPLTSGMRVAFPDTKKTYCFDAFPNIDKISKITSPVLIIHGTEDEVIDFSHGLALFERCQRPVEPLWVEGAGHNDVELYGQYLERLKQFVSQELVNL
UniProt Q8NFV4: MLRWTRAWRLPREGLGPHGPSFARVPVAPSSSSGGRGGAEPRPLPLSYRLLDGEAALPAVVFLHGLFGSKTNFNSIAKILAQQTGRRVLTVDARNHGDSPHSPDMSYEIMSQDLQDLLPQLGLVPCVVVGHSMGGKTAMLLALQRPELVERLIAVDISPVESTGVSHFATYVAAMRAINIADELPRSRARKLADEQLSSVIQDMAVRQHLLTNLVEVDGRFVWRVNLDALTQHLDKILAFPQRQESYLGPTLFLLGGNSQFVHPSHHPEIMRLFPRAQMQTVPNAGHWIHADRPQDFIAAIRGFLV

How the values were obtained:
Assay in all cases: log2 fold change, soluble protein after heating vs DMSO (PISA); higher = thermal stabilisation; K562 cells, 10 uM, 30 min; active = over 0.2 and 3.5 SD of the protein, either way, in both replicates (recomputed)
[1] = compound: CS(=O)(=O)c1ccc(-c2cnc(N)c(C(=O)Nc3ccccc3)n2)cc1
Procedure, shortened: (§1)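 Quantification of soluble protein used TMTpro 16plex LC-MS/MS, with channel sums equalised. Samples were the supernatant after 21,000xg for 90 min of pooled aliquots from K562 cells (2×10^6 cells/mL) treated with 10 μM compound for 30 min, heated for 3 min over 48°C-58°C, and extracted in PBS with 0.5% NP-40 at 4°C. Values, from duplicates, describe thermal stability against control samples on a log2 fold-change scale.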

[2] = compound: C[C@@H]1COCCN1C2=NC(=NC(=C2)C3(CC3)S(=O)(=O)C)C4=C5C=CNC5=CC=C4
Procedure, shortened: as §1

[3] = compound: C[C@H](C1=CC=C(C=C1)C(=O)NC2=C3C=CNC3=NC=C2)N
Procedure, shortened: as §1

gandotinib = compound: Cc1cc(Nc2cc(CN3CCOCC3)c3nc(C)c(Cc4ccc(Cl)cc4F)n3n2)n[nH]1 [gandotinib]
Procedure, shortened: as §1

[4] = compound: Cc1cc(SCc2sc(-c3ccc(C(F)(F)F)cc3)nc2C)ccc1OCC(=O)O
Procedure, shortened: as §1

duvelisib = compound: C[C@H](Nc1ncnc2nc[nH]c12)c1cc2cccc(Cl)c2c(=O)n1-c1ccccc1 [duvelisib]
Procedure, shortened: as §1

ispinesib = compound: Cc1ccc(C(=O)N(CCCN)[C@@H](c2nc3cc(Cl)ccc3c(=O)n2Cc2ccccc2)C(C)C)cc1 [ispinesib]
Procedure, shortened: as §1

crizotinib = compound: C[C@@H](Oc1cc(-c2cnn(C3CCNCC3)c2)cnc1N)c1c(Cl)ccc(F)c1Cl [crizotinib]
Procedure, shortened: as §1

tozasertib = compound: Cc1cc(Nc2cc(N3CCN(C)CC3)nc(Sc3ccc(NC(=O)C4CC4)cc3)n2)n[nH]1 [tozasertib]
Procedure, shortened: as §1

doramapimod = compound: Cc1ccc(-n2nc(C(C)(C)C)cc2NC(=O)Nc2ccc(OCCN3CCOCC3)c3ccccc23)cc1 [doramapimod]
Procedure, shortened: as §1

Measured: log2 fold change

ACVR1 (UniProt Q04771)
inactive: [1] 0.38 | [2] 0.04 | gandotinib 0.109 | [4] -0.061
active: [3] 0.642

ACAD10 isoform 5 (UniProt Q6JQN1)
inactive: duvelisib -0.181 | [4] 0.086 | ispinesib 0.114

AACS (UniProt Q86V21)
inactive: [2] -0.312 | ispinesib -0.182

ADAD1 (UniProt Q96M93)
inactive: crizotinib -0.005 | [3] 0.243 | duvelisib 0.354 | gandotinib 0 | tozasertib -0.053 | [4] -0.088 | doramapimod 0.01 | ispinesib -0.28

ABHD4 (UniProt Q8TB40)
inactive: [2] -0.028

A2ML1 (UniProt A8K2U0)
inactive: [1] 0.648 | tozasertib 0.166 | ispinesib -0.139

ACTG1 (UniProt I3L4N8)
inactive: duvelisib 1.03 | [4] 1.03 | ispinesib -0.012

ABHD6 (UniProt Q9BV23)
inactive: [1] 0.073 | gandotinib 0.063 | tozasertib -0.085 | ispinesib -0.299

ADAM8 (UniProt P78325)
inactive: crizotinib -0.003 | [2] -0.025 | doramapimod 0.083

ABCA2 isoform 3 (UniProt Q9BZC7)
inactive: [1] 0.124 | crizotinib 0.086 | doramapimod 0.021 | ispinesib 0.059

ACTR3B (UniProt Q9P1U1)
inactive: crizotinib -0.005 | gandotinib 0.024 | doramapimod 0.158 | ispinesib -0.069

ABCB11 (UniProt O95342)
inactive: [1] 0.081 | [3] 0.205 | tozasertib -0.308 | ispinesib 0.017

ACLY isoform 2 (UniProt P53396)
inactive: [1] 0.048 | [2] -0.104 | tozasertib 0.048 | ispinesib -0.084

ACOX1 isoform 3 (UniProt Q15067)
inactive: crizotinib 0.053 | tozasertib -0.246 | doramapimod 0.12

ABL1 isoform 2 (UniProt P00519)
inactive: [1] -0.054 | [2] -0.191 | [3] 0.235 | duvelisib -0.128 | gandotinib 0.047 | [4] 0.048 | ispinesib -0.043

ACSL6 isoform 1 (UniProt Q9UKU0)
inactive: [1] -0.055 | [2] 0.164 | gandotinib -0.145 | [4] 0.157 | ispinesib -0.198

ABRACL (UniProt Q9P1F3)
inactive: [1] 0.032 | crizotinib 0.186 | doramapimod -0.055 | ispinesib 0.04

ABCF1 (UniProt Q5STZ8)
inactive: [3] -0.048 | tozasertib -0.034

2 successive entries from above, quoted:
ABRACL (UniProt Q9P1F3)
inactive: [1] 0.032 | crizotinib 0.186 | doramapimod -0.055 | ispinesib 0.04

ABCF1 (UniProt Q5STZ8)
inactive: [3] -0.048 | tozasertib -0.034

Carrying on:

ABCB1 (UniProt P08183)
inactive: crizotinib -0.194 | [3] 0.006 | tozasertib -0.256 | doramapimod 0.166

ACBD7 (UniProt Q8N6N7)
inactive: duvelisib -0.078 | gandotinib 0.036 | [4] -0.053

ACAA2 (UniProt K7ER88)
inactive: [1] -0.089 | [2] 0.129

ABCE1 (UniProt H0Y990)
inactive: [1] -0.028 | [2] 0.036 | [3] -0.105 | duvelisib 0.129 | gandotinib -0.203 | tozasertib -0.015 | [4] -0.147

ABHD17B (UniProt Q5VST6)
inactive: crizotinib -0.075 | [2] 0.053 | [3] -0.028 | duvelisib -0.024 | gandotinib 0.069 | tozasertib 0.009 | [4] -0.021 | doramapimod -0.018 | ispinesib -0.014

ABCA8 isoform 3 (UniProt O94911)
inactive: tozasertib -0.509

ABHD11 (UniProt Q8NFV4)
inactive: crizotinib 0.149 | [3] 0.057 | [4] -0.003 | doramapimod 0.028 | ispinesib 0.029
active: [2] 0.309 | gandotinib 0.389

ACTN1 (UniProt H9KV75)
inactive: [1] 0.142 | [2] 0.012 | [3] -0.105 | duvelisib 0.104 | tozasertib -0.181 | [4] -0.078

AARSD1 (UniProt Q9BTE6)
inactive: crizotinib -0.036 | [3] 0.033 | [4] 0.026 | doramapimod -0.096

ABHD14A (UniProt Q9BUJ0)
inactive: [1] 0.04 | duvelisib -0.232 | [4] 0.127

ACTB, A0A2R8YEA7
inactive: [1] 0.207 | [3] 0.086 | duvelisib 0.152 | tozasertib 0.027 | [4] 0.048 | ispinesib 0.049
